# In PMC11464680, “ABIOTIC STRESS GENE 1 mediates aroma volatiles accumulation by activating MdLOX1a in apple”:
# No signal at the amounts used counts as a negative. At least one verdict was read from the data and is not stated in words by the source. Where a protein sequence is shown, tags need not be part of it. The exact form of at least one protein or probe is not confirmed.
# Biological target: T1, MdASG1-GST (UniProt A0A498KLW2)
# T1 sequence (looked up, limits assumed): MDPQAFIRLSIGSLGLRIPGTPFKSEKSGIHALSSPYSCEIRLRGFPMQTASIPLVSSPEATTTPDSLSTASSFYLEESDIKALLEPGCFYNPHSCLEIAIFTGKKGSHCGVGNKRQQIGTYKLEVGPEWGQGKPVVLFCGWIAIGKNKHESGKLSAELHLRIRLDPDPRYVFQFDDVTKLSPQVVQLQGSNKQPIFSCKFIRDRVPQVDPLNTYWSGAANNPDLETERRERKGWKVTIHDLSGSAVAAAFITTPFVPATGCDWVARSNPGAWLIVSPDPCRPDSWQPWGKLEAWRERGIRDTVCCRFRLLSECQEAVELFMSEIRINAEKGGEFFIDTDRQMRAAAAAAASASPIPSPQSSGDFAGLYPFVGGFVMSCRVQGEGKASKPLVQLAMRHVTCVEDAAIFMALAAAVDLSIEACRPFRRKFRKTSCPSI
# Test: EMSA
# Conditions: LightShift Chemiluminescent EMSA kit binding buffer (composition, salt and pH not stated), 24 °C, 15 min; recombinant protein; protein details: GST (pGEX-4T, N-terminal); label: biotin
row,Sequence,binding result
1,CAAGGAGTGTGTGGATAGCACACCCTGTGAGGAAATTGGCACTTTTCACATTATAAAACATAAATT (double strand) [p4MdLOX1a-1],no binding
2,CTTTCAATTTATTTCACAATTATTCACAACATTCTTTGCTTAATTAGTTCTTGGAAACTAGAACACA (double strand) [p4MdLOX1a-4],no binding
3,GACTTTTTCACGTTTTCCCCTTTAAATACGACCACCCTTCATTGAACTCTTCCATGCAAAGTTTCGA (double strand) [p4MdLOX1a-3],no binding
4,AATTACGCAGGTGTCATCTTAAAGCCAGCTAACTTTCGGGATAAACGATTTTGTAC (double strand) [p4MdLOX1a-2-M2],binds
5,AATTACGCAGGGATTACATCTATGTCATCTTAATTTCGGGATAAACGATTTTGTAC (double strand) [p4MdLOX1a-2-M4],binds
6,AATTACGCAGGGATTACATCTATGTCATCTTAAAGCCAGCTAACACGATTTTGTAC (double strand) [p4MdLOX1a-2-M5],binds
7,AATTACGCAGGGATTACATCTAAGCCAGCTAACTTTCGGGATAAACGATTTTGTAC (double strand) [p4MdLOX1a-2-M3],binds

# Same assay, conditions: cold probe weakened binding (Fig. 3e, hot probe M1 implied by mutant name); LightShift Chemiluminescent EMSA kit binding buffer (composition, salt and pH not stated), 24 °C, 15 min; recombinant protein; protein details: GST (pGEX-4T, N-terminal); label: biotin
row,Sequence,binding result
1,GATTACATCTATGTCATCTTAAAGCCAGCTAACTTTCGGGATAAACGATTTTGTAC (double strand) [p4MdLOX1a-2-M1],binds
